This is an account of results in PubChem BioAssay AID2685 (National Center for Advancing Translational Sciences (NCATS), 2010).

This is one part of the list. The main result of the screen is listed elsewhere. These columns were measured beside it and carry no call. Compounds called inactive in the main read-out are mostly missing here. Words in brackets tell the shape of the fitted curve; partial curves, single points and poor fits give uncertain potencies.

The experiment in a line: qHTS Assay for Lipid Storage Modulators in Drosophila S3 Cells.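 For cell number change: cells counted by Cell Tracker Red CMTPX staining in the red channel.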 The conditions noted are these: BODIPY lipid droplet fluorescence, 18-24 h; for cell number change: measured here: cell count max response, cells fed with added oleic acid. In short, it runs like this: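 Drosophila S3 cells loaded with oleic acid (400 uM, as added) and compounds at several concentrations; lipid droplets imaged by 488-nm laser-scanning cytometry, 500–530 nm intensity and object ratio to cell channel. Percent activity normalized to 20 uM Triacsin C.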
Background: Quantitative high-throughput screening tests each substance at several concentrations.

Setting [1] is: measured here: lipid fluorescence (Fed channel) AC50, cells fed with added oleic acid.
Where [2] appears, read: measured here: cell number channel AC50, cells fed with added oleic acid.

What is called AC50 is the concentration giving half of the maximal activity seen. A lower AC50 goes with greater potency. Turning to `CC(=O)Nc1ccc(C(=O)CSc2nnc(C)o2)cc1`, the cell number change is -22.4%. Further, the AC50 under setting [1] is 0.092 µM [falling, full curve, poor fit].
As for `CC1CCN(S(=O)(=O)c2csc(C(=O)Nc3ccccc3)c2)CC1`, the cell number change is 15%. In addition, under setting [1], the AC50 was 6.51 µM [falling, single point].
Consider `COc1ccc([C@H]2CC(=O)C=C(c3cccc(C(C)C)c3)C2)cc1`, for which the cell number change is -16.5%. For the same compound, the AC50 under setting [1] was 3.26 µM [falling, full curve].
Regarding `CC1CCCN(C(=S)Nc2ccc(F)cc2)C1` (configuration not stated), the cell number change is -51.5%. Further, under setting [2], the half-maximal activity concentration (AC50) was 1.03 µM [falling, full curve]. Also, the AC50 under setting [1] is 0.366 µM [falling, full curve].
Turning to `Cc1c(Cl)cccc1NC(=S)NCCc1ccc(C(F)(F)F)cc1`, the cell number change was -41%. The AC50 under setting [2] was 11.6 µM [falling, partial curve]. Further, under setting [1], the AC50 was 8.2 µM [falling, partial curve].
In the case of `COc1ccc(OCCC(=O)NCc2ccccc2)cc1`, under setting [1], the AC50 was 0.184 µM [falling, full curve, poor fit].
In the case of `CCCc1cc(=O)[nH]c(Nc2cc(OC)ccc2OC)n1`, the cell number change was 1.82%. For the same compound, the AC50 under setting [1] was 4.11 µM [rising, partial curve, poor fit].
For the compound `CN1CCC(=C2c3ccccc3C=Cc3ccccc32)CC1`, the cell number change is -9.44%. Also, under setting [2], the AC50 was 6.51 µM [falling, single point].
For the compound `COc1cccc(NC(=O)C(=O)c2cn(CC(=O)N3CCCC3)c3ccccc23)c1`, the cell number change was 9.73%. In addition, the AC50 under setting [1] is 6.51 µM [rising, partial curve].
Take `COc1ccc2ccccc2c1C(=O)/C=C\c1ccoc1`: the cell number change came out at 0.689%. In addition, the half-maximal activity concentration (AC50) under setting [2] is 3.66 µM [rising, single point].
On to `CCCCn1c(N)c(N(CCOC)C(=O)c2ccc(N3C(=O)CCC3=O)cc2)c(=O)[nH]c1=O`, for which the cell number change is -22%. Further, under setting [1], the AC50 is 5.17 µM [falling, full curve, poor fit].
For the compound `CC(=O)Oc1ccc(-c2ccc(C(=O)O)cc2)cc1`, the cell number change was -4.06%. Also, under setting [1], the half-maximal activity concentration (AC50) was 25.9 µM [falling, partial curve].
`O=C(NCCc1ccc(Cl)cc1)c1cnc2n(c1=O)CCS2`: the cell number change is 41.4%. Further, the half-maximal activity concentration (AC50) under setting [2] was 6.51 µM [rising, partial curve]. The concentration at half-maximal activity (AC50) under setting [1] is 8.2 µM [rising, partial curve].
Regarding `COCCN(CCOC)S(=O)(=O)c1ccc(C(=O)Nc2nc(-c3ccncc3)cs2)cc1`, the cell number change stood at 36.5%.
With `COc1cc(OC)c(C2C(C#N)=C(C)NC(C)=C2C#N)c(C(=O)O)c1`, the cell number change was -13.1%. Under setting [1], the AC50 was 4.11 µM [falling, full curve].
As for `CC1=NNC(=O)C1CCC(=O)N/N=C(\C)c1ccc(Cl)cc1` (configuration not stated), the cell number change amounted to 20.2%. In addition, under setting [1], the half-maximal activity concentration (AC50) is 4.61 µM [rising, partial curve, poor fit].
Take `CCOC(=O)c1ccc(C(=S)N2CCCC2)cc1`: the cell number change stood at 2.78%.
Turning to `CCOc1ccc(N2C(=O)Nc3ccc(Br)cc3C2(O)C(=O)NCCN(C)C)cc1` (configuration not stated), the cell number change was -22.5%. Also, under setting [2], the AC50 was 0.13 µM [falling, full curve, poor fit].
For the compound `O=C(NCCOc1ccccc1F)c1ccccc1SCc1ccc(F)cc1`, the cell number change was 12.8%.
In the case of `COc1ccc(N(CC(=O)NCc2ccc(C)cc2)S(=O)(=O)c2c(C)nn(C)c2C)cc1`, the cell number change came to 7.67%. The AC50 under setting [1] was 14.6 µM [rising, partial curve, poor fit].
Turning to `Cc1cc(NC(=O)CCC(=O)N(CC(=O)NCC2CCCO2)c2ccccc2)no1` (configuration not stated), the cell number change came out at 12.1%.
As to `CCC(=O)N1c2ccccc2NC2=C(C(=O)CC(C)(C)C2)C1c1cccnc1` (configuration not stated), the cell number change stood at 4.03%. Moreover, under setting [1], the AC50 is 1.46 µM [rising, partial curve, poor fit].
On to `COc1cc(/C=C2\SC(=S)N(Nc3ncc(C(F)(F)F)cc3Cl)C2=O)ccc1O`, for which the cell number change is -36.4%. The AC50 under setting [2] is 29.1 µM [falling, single point]. Further, the AC50 under setting [1] is 29.1 µM [falling, single point].
For the compound `CCCCCOC(=O)Cn1c(N2CCOCC2)nc2c1c(=O)[nH]c(=O)n2C`, the cell number change turned out to be 13.9%. Further, the AC50 under setting [2] is 6.51 µM [rising, single point]. In addition, under setting [1], the AC50 was 0.116 µM [rising, single point].
Take `Cc1cccc(C(=O)OCC(=O)NCC2CCCO2)c1O` (configuration not stated): the AC50 under setting [1] is 29.1 µM [rising, single point].
Consider `CCn1cc(Br)c(C(=O)NCc2ccco2)n1`, for which the cell number change turned out to be 5.61%. Also, under setting [1], the AC50 is 23.1 µM [falling, partial curve, poor fit].
As for `O=C(Nc1ccc(S(=O)(=O)NCc2ccco2)cc1)c1ccc2ccccc2n1`, the AC50 under setting [1] was 1.84 µM [rising, partial curve].
Same read-out and setting: the result for `c1ccc(CSc2nnc3ccc(-c4ccco4)nn23)nc1` reads 6.51 µM [falling, single point].
Turning to `CN(C(=O)c1cccc(Nc2ccc(-c3ccc4c(c3)OCCO4)nn2)c1)C1CCCCC1`, the cell number change is -24.7%. Further, under setting [1], the AC50 is 29.1 µM [falling, single point].
`COc1ccc(Br)cc1CNC(=O)CCC(=O)N1CCSc2ccccc21`: the cell number change was -19.3%. Further, the AC50 under setting [1] was 20.6 µM [falling, single point].
As to `CCOc1cc(/C=N/NC(=O)c2ccncc2)ccc1OC(=O)c1ccco1`, the cell number change was -17.6%. Also, under setting [1], the AC50 was 9.2 µM [falling, single point].
For the compound `O=C(NCCCN1CCOCC1)c1cc(-c2ccc(Br)cc2)nc2ccccc12`, the cell number change amounted to 28.1%. Under setting [1], the AC50 was 20.6 µM [rising, single point].
As to `O=C(CN1C(=O)CCS(=O)(=O)c2ccccc21)Nc1cccc(F)c1`, the AC50 under setting [1] is 0.517 µM [falling, full curve].
Regarding `O=C(NCCCN1CCCC1)c1ccc2c(c1)N(Cc1ccccc1)CCS2`, the cell number change worked out at 14.6%.
On to `CSc1ccc(S(=O)(=O)Nc2ccccc2C(=O)N2CCOCC2)cc1`, for which the cell number change is -14.1%. For the same compound, under setting [1], the AC50 was 11.6 µM [falling, partial curve, poor fit].
With `Cc1nc2ccccc2n(CC(=O)Nc2cc(Cl)cc(Cl)c2)c1=O`, the concentration at half-maximal activity (AC50) by setting is: under setting [2], 2.91 µM [rising, single point]; under setting [1], 1.46 µM [rising, partial curve].
As to `Cc1nc(C)c(-c2nnc(-c3cccc(S(=O)(=O)N(C)C)c3)o2)cc1C(=O)NN`, the cell number change came out at 2.13%.
Regarding `O=C1c2ccc([N+](=O)[O-])cc2C(=O)N1c1c[nH]c(=O)[nH]c1=O`, the cell number change was -12.4%. For the same compound, under setting [1], the AC50 was 6.51 µM [falling, single point].
As for `Cc1cc(NC(=O)c2nn3cccnc3c2Cl)no1`, the AC50 reads like this: under setting [2], 2.59 µM [rising, partial curve]; under setting [1], 3.66 µM [rising, partial curve].
